PubChem BioAssay AID504786 – Drosophila RNAi Screening Center | 2011
In all, the deposit lists about 21,000 reagents; shown is an unselected part of those with a known target gene and a result. 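Primary screen; positive scores mean lost reporter signal, so the sign may be inverted from the usual convention.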 Names joined by + are all predicted targets of the reagent.

Purpose: 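Knock-downs reducing HIF reporter induction by the iron chelator DFO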 (primary screen)
Cells: Drosophila S2 cells with a stable HIF luciferase reporter
Knock-down reagent: long dsRNA against Drosophila genes, about 0.2 µg dsRNA per well of a 384-well plate
Duration: three days of knock-down, then 20 h of DFO before reading
Challenge: desferrioxamine (DFO) at 100 µM, an iron chelator that mimics hypoxia, for 20 h
Measurement: 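HIF reporter luminescence in cells given 100 µM DFO for 20 h, using the mouse ldh-a hypoxia-response element, scored as per-plate z-scores; higher means greater loss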
Reading the numbers: z-score: higher = stronger loss of HIF reporter signal

predicted target	DRSC id	z-score, replicate 1	z-score, replicate 2	z-score, replicate 3	z-score, replicate 4
cni (GeneID 34967)	DRSC03512	0.7	-0.3		
Cpr57A + Obp57d	DRSC06708	-0.1	-0.4		
scyl (GeneID 39270)	DRSC11392	-0.3	-0.6		
nahoda (GeneID 37641)	DRSC03954	-0.5	0		
nahoda (GeneID 37641)	DRSC04126	-0.1	0.1		
CG9044 (GeneID 33825)	DRSC03130	-0.3	-0.4		
CG17819 (GeneID 42579)	DRSC15279	0.1	-0.2		
Cpr30F (GeneID 318997)	DRSC02908	-0.2	-0.6		
BthD (GeneID 32317)	DRSC19395	0	0.1		
Cp7Fb (GeneID 31785)	DRSC18034	-0.2	-0.4		
CG13692 (GeneID 33216)	DRSC00361	-0.2	-0.4		
l(3)psg2 (GeneID 38630)	DRSC10484	0.4	0.6		
bonsai (GeneID 37587)	DRSC04453	1.2	1		
CG13121 (retired record) (GeneID 34298)	DRSC02217	-0.3	-0.2		
CG10505 (GeneID 37428)	DRSC04075	-0.3	-0.5		
meng (GeneID 33948)	DRSC02134	-0.2	-0.1		
SMC3 (GeneID 32627)	DRSC20227	0.2	0.3		
CG15912 (GeneID 31385)	DRSC18105	-0.3	-0.5		
UGP + PGRP-LF	DRSC10418	-0.2	-0.4		
CG15530 (GeneID 43589)	DRSC15067	-0.3	-0.2		
CG8004 (GeneID 40178)	DRSC10947	-0.2	-0.4		
GluRIIB (GeneID 33789)	DRSC03335	0	-0.2		
not (GeneID 40030)	DRSC11378	-0.4	-0.5		
CG13031 (GeneID 39867)	DRSC09911	-0.3	-0.5		
CG42233 (GeneID 43754)	DRSC14328	-0.4	-0.6		
CG42233 (GeneID 43754)	DRSC15416	-0.4	-0.7		
His4r (GeneID 41773)	DRSC16703	3.8	3.3		
PolZ1 (GeneID 47186)	DRSC06800	-0.3	-0.2		
CG17477 (GeneID 42067)	DRSC15239	-0.6	-0.6		
CG13738 (GeneID 39541)	DRSC10065	-0.6	-0.6		
Frl (GeneID 39561)	DRSC09300	-0.3	-0.3		
Frl (GeneID 39561)	DRSC10027	-0.3	-0.3		
Frl (GeneID 39561)	DRSC10716	-0.2	-0.2	-0.1	-0.6
CG13658 (GeneID 43055)	DRSC14659	-0.3	-0.2		
CG7889 (GeneID 32916)	DRSC20066	-0.4	-0.4		
CG40053 (retired record) (GeneID 3355092)	DRSC20833	-0.4	-0.3		
Paip1 (GeneID 36913)	DRSC07302	-0.2	-0.8		
CG32100 (GeneID 39400)	DRSC09725	-0.1	0.1		
CG32100 (GeneID 39400)	DRSC10331	-0.3	-0.4		
CG4701 (GeneID 34858)	DRSC01952	-0.3	1.9		
psh (GeneID 32832)	DRSC19990	-0.3	-0.5		
CG30058 + CG34235 + CG34312	DRSC05401	-0.1	0		
CG7408 (GeneID 39991)	DRSC10841	-0.2	-0.3		
ND-24 (GeneID 32740)	DRSC19960	-0.1	0.1		
CG9192 (GeneID 38134)	DRSC08639	-0.2	-0.3		
CG11373 (GeneID 50152)	DRSC12170	-0.1	-0.6		
CG34430 (GeneID 5740489)	DRSC06499	-0.3	-0.6		
CG14273 (GeneID 34146)	DRSC02377	0	0.1		
Gs1l (GeneID 33653)	DRSC00754	-0.4	-0.4		
CG13727 (GeneID 39931)	DRSC10055	-0.1	-0.2		
aPKC (GeneID 47594)	DRSC05515	-0.2	-0.1		
aPKC (GeneID 47594)	DRSC07639	-0.3	-0.1		
Ccn (GeneID 39972)	DRSC09504	-0.3	-0.2		
Ccn (GeneID 39972)	DRSC09506	-0.1	0		
Ccn (GeneID 39972)	DRSC10062	-0.4	-0.5		
Ccn (GeneID 39972)	DRSC10063	0.3	-0.2		
pzg (GeneID 40351)	DRSC11848	0.5	-0.1		
CG12811 (GeneID 41229)	DRSC14549	-0.3	0.4		
CG6380 (GeneID 35040)	DRSC02950	-0.2	-0.3		
Cwc25 (GeneID 33460)	DRSC00545	0.5	0.8		
toe (GeneID 39418)	DRSC09174	-0.3	-0.1		
toe (GeneID 39418)	DRSC09783	-0.3	-0.3		

An excerpt taken from the entries so far, as a working copy:
predicted target	DRSC id	z-score, replicate 1	z-score, replicate 2	z-score, replicate 3	z-score, replicate 4
psh (GeneID 32832)	DRSC19990	-0.3	-0.5		
CG30058 + CG34235 + CG34312	DRSC05401	-0.1	0		
CG7408 (GeneID 39991)	DRSC10841	-0.2	-0.3		
ND-24 (GeneID 32740)	DRSC19960	-0.1	0.1		
CG9192 (GeneID 38134)	DRSC08639	-0.2	-0.3		
CG11373 (GeneID 50152)	DRSC12170	-0.1	-0.6		
CG34430 (GeneID 5740489)	DRSC06499	-0.3	-0.6		
CG14273 (GeneID 34146)	DRSC02377	0	0.1		
Gs1l (GeneID 33653)	DRSC00754	-0.4	-0.4		
CG13727 (GeneID 39931)	DRSC10055	-0.1	-0.2		
aPKC (GeneID 47594)	DRSC05515	-0.2	-0.1		
aPKC (GeneID 47594)	DRSC07639	-0.3	-0.1		
Ccn (GeneID 39972)	DRSC09504	-0.3	-0.2		
Ccn (GeneID 39972)	DRSC09506	-0.1	0		
Ccn (GeneID 39972)	DRSC10062	-0.4	-0.5		
Ccn (GeneID 39972)	DRSC10063	0.3	-0.2		

Further entries follow.
predicted target	DRSC id	z-score, replicate 1	z-score, replicate 2	z-score, replicate 3	z-score, replicate 4
CG9287 (GeneID 34194)	DRSC03186	-0.4	-0.1	-0.4	-0.3
CG5267 (GeneID 36875)	DRSC06928	-0.3	-0.5		
ATPCL (GeneID 36760)	DRSC05913	-0.4	-0.5		
gem (GeneID 36064)	DRSC06093	-0.4	-0.7		
gem (GeneID 36064)	DRSC06847	0	0.3		
CG43386 (GeneID 31929)	DRSC17980	-0.2	-0.9		
GstE9 (GeneID 246581)	DRSC06679	-0.2	-0.5		
GstO2 (GeneID 38974)	DRSC10691	-0.3	0.2		
CG14659 (GeneID 40604)	DRSC12245	-0.2	0		
CG34326 (retired record) (GeneID 5740223)	DRSC19165	-0.2	-0.4		
por (GeneID 32818)	DRSC20362	-0.4	-0.2		
Lamtor5 (GeneID 31137)	DRSC18491	-0.3	-0.9		
bru3 (GeneID 39527)	DRSC09280	-0.4	-0.5	-0.3	-0.3
bru3 (GeneID 39527)	DRSC09687	-0.3	-0.1		
bru3 (GeneID 39527)	DRSC09887	-0.2	0.2		
drpr (GeneID 38218)	DRSC08143	-0.1	0.2		
drpr (GeneID 38218)	DRSC08525	-0.3	-0.3		
CG15545 (GeneID 43658)	DRSC15083	-0.2	-0.3		
CheA7a (GeneID 31672)	DRSC17965	-0.3	-0.3		
CG30089 (GeneID 36736)	DRSC06126	-0.3	-0.4		
CG30089 (GeneID 36736)	DRSC06127	6.3	4.7		
CG30089 (GeneID 36736)	DRSC06267	-0.2	-0.3		
CG30089 (GeneID 36736)	DRSC06268	-1.1	0.2		
Ipo9 (GeneID 41367)	DRSC16813	-0.3	-0.8		
CG14423 (GeneID 31287)	DRSC17920	-0.2	-0.2		
CG3638 (GeneID 31071)	DRSC18533	1.6	0.6		
atilla (GeneID 34647)	DRSC02971	-0.4	-0.5		
CG12289 (GeneID 39279)	DRSC09874	-0.2	0.2		
CG13039 (GeneID 39805)	DRSC09920	-0.3	-0.4		
CG16820 (GeneID 34730)	DRSC02522	-0.3	-0.6		
a10 (GeneID 39906)	DRSC11319	-0.3	-0.2		
CG15695 (GeneID 42468)	DRSC15117	0.9	0		
otk (GeneID 36283)	DRSC07658	-0.3	-0.5		
Ptth (GeneID 33238)	DRSC00356	0	-0.2		
Sb (GeneID 41958)	DRSC16851	-0.4	-0.9		
CG34241 (GeneID 5740575)	DRSC09157	-0.4	-0.7		
CG13678 (GeneID 38922)	DRSC10036	-0.1	-0.4		
CG14052 (GeneID 31203)	DRSC17907	-0.2	0.1		
CG14052 (GeneID 31203)	DRSC18192	-0.4	-0.5		
CG6565 (GeneID 34749)	DRSC02970	0	0.3		
CG15602 (GeneID 32533)	DRSC19671	-0.4	-0.6		
Ir56b (GeneID 37250)	DRSC06543	-0.4	-0.7		
Pex23 (GeneID 40229)	DRSC10323	-0.3	-0.6		
Pex23 (GeneID 40229)	DRSC10645	-0.4	-0.3		
